{"source": "patent US4385057A", "about": "“Diphenylbutyl-piperazinecarboxamides in pharmaceutical compositions and methods” (priority 1978, dated 1983)", "key": {"[1]": {"system": "acetic acid induced writhing", "test": "Writhing test (analgetic properties)", "type": "in vivo, mouse (NMRI female)", "conditions": "Mus musculus, sc, read-out: ED50, mg/kg, s.c. (dose blocking the writhing behaviour in 50% of the animals)", "procedure": "The writhing test is a frequently used test of analgetic properties (L. B. Witkin et al., J. Pharmacol. Exp. Ther. 133, 400 (1961)). If acetic acid (0.5%, 15 ml/kg) is injected intraperitoneally in mice (NMRI) they will without exception develop a writhing behaviour characterized by stretching their hind legs. The drugs to be tested were administered subcutaneously to 6 female mice at each dose 20 min. before the injection of the acetic acid. After 10 min. the behaviour of the mice was studied in 5 min. The ED50 value is the dose blocking the writhing behaviour in 50% of the animals during the 5 min. study period. [drawing 13]"}, "[2]": {"system": "thymus", "test": "Swim-test (stress-induced thymolymphatic involution)", "type": "in vivo, mouse (NMRI female)", "text": "If an animal is in a stage of exhaustion the rise in glucocorticoids induced by the stress causes thymolymphatic involution and elicites a characteristic change in blood count. […] In the experiments NMRI female mice were used with well-documented thymic glands. In the experiments the mice were divided in four groups. In the first group the mice were allowed to stay in their home cages all the time. In the second group saline-treated mice were repeatedly forced to swim in water at a temperature of +5° C. for 1 min. once every hour, 6 times per day for four days. In the third group the mice were pre-treated once with the test compound 10 min. before the first swim-test, otherwise the mice were manipulated in the same way as in the second group. In the fourth group the mice were adrenalectomized three days before the start of the swim tests. Otherwise also this group was manipulated as the second group. All mice were killed on the 5th day of the experiment and the weight of the thymic gland registered."}}, "data": [{"smiles": "CN1CC[C@]23c4c5ccc(O)c4O[C@H]2[C@@H](O)C=C[C@H]3[C@H]1C5", "note": "[Morphine]", "values": [{"measurement": "ED50", "setting": "[1]", "value": 1.6, "unit": "mg/kg"}]}, {"smiles": "CN1C(=O)CN=C(c2ccccc2)c2cc(Cl)ccc21", "note": "[Diazepam]", "values": [{"measurement": "protecting capacity against the induced stress", "setting": "[2]; in words", "value": "less effective"}, {"measurement": "Relative weight of thymus, ×100", "setting": "[2]; pre-treatment dose 1.0 mg/kg, once 10 min before first swim-test, saline stressed 36, unstressed 66, Wilcoxon's ranking test", "value": 45}]}]}
